Laboratory results: PubChem BioAssay AID330 (DTP/NCI, 2004)
The list is a part of this screen's results and no random one: it gathers tests that were run many times, whatever their T/C, doses with no T/C, and many T/C values between a quarter and a half above the control. Further doses and runs are listed elsewhere. T/C: endpoint of the treated group in % of that of the vehicle group. Some doses have a count of surviving animals in place of a T/C: the source files T/C as zero there, which appears to mark a toxic dose or a test without result, not a measured value. Some survivor counts are full or nearly so, which does not show that the dose was tolerated: the source hardly ever lists a survival T/C far under the control, and the zero likely stands for such cases as well. Survivors were counted at the toxicity check, usually on the fifth day, unless a day is given; later deaths do not show. Schedule codes are those of the source, taken here to give the interval after Q, in days (D) or hours (H), and the number of doses after X. Some entries hold several experiments; the results are listed from low to high. Where survival is the endpoint, the PubChem record calls one and a half times the control and up active, and a quarter to a half above the control has no call in these data; cut-offs in other NCI protocols can differ. Some T/C values carry the count of animals alive at the toxicity check (mostly the fifth day); without a count, all were alive then.

Test system: P388 leukemia ip, CD2F1 mice, survival T/C
Assay: NCI In Vivo Anticancer Drug Screen. Data for tumor model P388 Leukemia (intraperitoneal) in CD2F1 (CDF1) mice
Conditions: T/C endpoint: median survival time, higher T/C = longer survival
[1] = dose: 100.0 mg/kg/injection, schedule: Q01DX009 (ip), vehicle: saline
[2] = dose: 200.0 mg/kg/injection, schedule: Q01DX009 (ip), vehicle: saline
[3] = dose: 100.0 mg/kg/injection, schedule: Q01DX009 (ip), vehicle: saline with Tween-80
[4] = dose: 200.0 mg/kg/injection, schedule: Q01DX009 (ip), vehicle: saline with Tween-80
[5] = dose: 200.0 mg/kg/injection, schedule: Q04DX003 (ip), vehicle: saline with Tween-80
[6] = dose: 50.0 mg/kg/injection, schedule: Q01DX009 (ip), vehicle: saline
[7] = dose: 50.0 mg/kg/injection, schedule: Q01DX005 (ip), vehicle: Klucel (hydroxypropylcellulose) (HPC)
[8] = dose: 200.0 mg/kg/injection, schedule: Q01DX009 (ip), vehicle: Klucel (hydroxypropylcellulose) (HPC)

Q: Which survivor count (dose: 400.0 mg/kg/injection, schedule: Q04DX003 (ip), vehicle: Klucel (hydroxypropylcellulose) (HPC)) does the source give for COc1ccc(OCC(O)CN2CCN(c3ccc(Cl)cc3)CC2)cc1 (stereo not given) here?
A: 6 of 6

Q: How did the survivor count (dose: 100.0 mg/kg/injection, schedule: Q01DX009 (ip), vehicle: distilled water + Tween-80) turn out when N/C(=N\N=C\c1cc(Br)cc(Br)c1O)N/N=C/c1cc(Br)cc(Br)c1O was run?
A: 5 of 6

Q: What about the survivor count (dose: 400.0 mg/kg/injection, schedule: Q01DX009 (ip), vehicle: distilled water + Tween-80) of the same molecule?
A: 2 of 6

Q: [Co].[N-]=C=S.[N-]=C=S.[N-]=C=S.[N-]=C=S was tested. Which survivor count [1] did it give?
A: 0 of 6

Q: What about the survivor count [2] of the same molecule?
A: 0 of 6

Q: Which results are given for CCCCCOc1ccc(C(=O)/C(Br)=C/C(=O)O)cc1?
A: survivor count [3]: 0 of 6; survivor count [4]: 1 of 6

Q: How did the survivor count (dose: 100.0 mg/kg/injection, schedule: Q01DX001 (ip), vehicle: saline with Tween-80) turn out when Cn1cc(Cl)n(C)c(=O)c1=O was run?
A: 0 of 6

Q: And the survivor count (dose: 200.0 mg/kg/injection, schedule: Q01DX001 (ip), vehicle: saline with Tween-80)?
A: 0 of 6

Q: And the survivor count (dose: 400.0 mg/kg/injection, schedule: Q01DX001 (ip), vehicle: saline with Tween-80)?
A: 0 of 6

Q: NC(C(=O)O)c1ccc(CBr)cc1 (stereo not given) was tested. Which T/C (dose: 50.0 mg/kg/injection, schedule: Q04DX003 (ip), vehicle: saline with Tween-80) did it give?
A: 142 [5 of 6 alive] and 149 % of control

Q: And the T/C [5]?
A: 144 % of control [4 of 6 alive]

Q: And the survivor count [5]?
A: 4 of 6

Q: With CCCCCCC[N+]1(CC)CCCCC1 as the molecule, how does the survivor count [6] read?
A: 3 of 6

Q: And the survivor count [1]?
A: 0 of 6

Q: And the survivor count [2]?
A: 0 of 6

Q: What does the source list for COc1ccc(-c2cc(=O)c3cc(C)c(C)c(C#N)c3o2)cc1?
A: survivor count (dose: 30.0 mg/kg/injection, schedule: Q01DX005 (ip), vehicle: Klucel (hydroxypropylcellulose) (HPC)): 6 of 6; survivor count (dose: 60.0 mg/kg/injection, schedule: Q01DX005 (ip), vehicle: Klucel (hydroxypropylcellulose) (HPC)): 6 of 6; survivor count (dose: 120.0 mg/kg/injection, schedule: Q01DX005 (ip), vehicle: Klucel (hydroxypropylcellulose) (HPC)): 6 of 6; survivor count (dose: 240.0 mg/kg/injection, schedule: Q01DX005 (ip), vehicle: Klucel (hydroxypropylcellulose) (HPC)): 6 of 6

Q: How did the survivor count (dose: 100.0 mg/kg/injection, schedule: Q04DX002 (ip), vehicle: saline with Tween-80) turn out when O=c1ccc2cc(-c3ccncc3)cnc2[nH]1 was run?
A: 3 of 6

Q: CCCCN=C(N=C(N)N)NCC was tested. Which survivor count (dose: 200.0 mg/kg/injection, schedule: Q01DX005 (ip), vehicle: saline) did it give?
A: 0 of 6

Q: Which survivor count (dose: 200.0 mg/kg/injection, schedule: Q01DX005 (ip), vehicle: saline with Tween-80) does the source give for CN1CC2OC2(c2ccccc2)C(c2ccccc2)C1 (stereo not given) here?
A: 0 of 6

Q: CC1=NCC(C)c2ccccc21 (stereo not given) was tested. Which survivor count (dose: 25.0 mg/kg/injection, schedule: Q01DX009 (ip), vehicle: saline with Tween-80) did it give?
A: 0 of 6

Q: And the survivor count (dose: 50.0 mg/kg/injection, schedule: Q01DX009 (ip), vehicle: saline with Tween-80)?
A: 0 of 6

Q: What about the survivor count [3] of the same molecule?
A: 0 of 6

Q: What about the survivor count [4] of the same molecule?
A: 0 of 6

Q: O=C1OCC2C3C=CC(O3)C12 (stereo not given) was tested. Which survivor count (dose: 400.0 mg/kg/injection, schedule: Q04DX003 (ip), vehicle: saline) did it give?
A: 1 of 6

Q: Which T/C (dose: 400.0 mg/kg/injection, schedule: Q01DX009 (ip), vehicle: saline with Tween-80) does the source give for CCCCCCCCCCCCCCCCCS(=O)S(=O)O (stereo not given) here?
A: 131 % of control

Q: What does the source list for CN=C(NCCc1ccccc1)c1ccc(NC(=O)c2ccc(C(=O)Nc3ccc(C(=NC)NCCc4ccccc4)cc3)cc2)cc1?
A: T/C (dose: 12.5 mg/kg/injection, schedule: Q01DX005 (ip), vehicle: Klucel (hydroxypropylcellulose) (HPC)): 144 % of control; survivor count (dose: 25.0 mg/kg/injection, schedule: Q01DX005 (ip), vehicle: Klucel (hydroxypropylcellulose) (HPC)): 0 of 6 and 4 of 6; survivor count [7]: 0 of 6; survivor count (dose: 100.0 mg/kg/injection, schedule: Q01DX005 (ip), vehicle: Klucel (hydroxypropylcellulose) (HPC)): 0 of 6; survivor count (dose: 200.0 mg/kg/injection, schedule: Q01DX005 (ip), vehicle: Klucel (hydroxypropylcellulose) (HPC)): 0 of 6

Q: CCNC(=O)/C=C(C)/C=C/C=C(C)/C=C/c1c(C)cc(OC)c(C)c1C was tested. Which survivor count [7] did it give?
A: 6 of 6

Q: What does the source list for COC1=CC(=Nc2ccc(N(CCCl)CCCl)cc2)C=CC1=O?
A: T/C (dose: 12.5 mg/kg/injection, schedule: Q01DX009 (ip), vehicle: Klucel (hydroxypropylcellulose) (HPC)): 133 % of control; survivor count [8]: 2 of 6

Q: With Cc1cc(NCCCCCCNc2cc(C)nc3cc(N)ccc23)c2ccc(N)cc2n1 as the molecule, how does the T/C (dose: 3.13 mg/kg/injection, schedule: Q01DX009 (ip), vehicle: other) read?
A: 133 % of control

Q: What about the T/C (dose: 6.25 mg/kg/injection, schedule: Q01DX009 (ip), vehicle: other) of the same molecule?
A: 132 and 137 % of control

Q: What about the T/C (dose: 12.5 mg/kg/injection, schedule: Q01DX009 (ip), vehicle: other) of the same molecule?
A: 132 and 147 % of control

Q: And the survivor count (dose: 50.0 mg/kg/injection, schedule: Q01DX009 (ip), vehicle: other)?
A: 1 of 6 and 2 of 6

Q: What about the survivor count (dose: 100.0 mg/kg/injection, schedule: Q01DX009 (ip), vehicle: other) of the same molecule?
A: 0 of 6

Q: What does the source list for C/C(N)=C\C(=S)Nc1ccccc1?
A: survivor count (dose: 50.0 mg/kg/injection, schedule: Q01DX009 (ip), vehicle: Klucel (hydroxypropylcellulose) (HPC)): 6 of 6; survivor count (dose: 100.0 mg/kg/injection, schedule: Q01DX009 (ip), vehicle: Klucel (hydroxypropylcellulose) (HPC)): 1 of 6; survivor count [8]: 0 of 6

Q: What does the source list for Cn1c(=O)c2c(nnc(-c3ccc(Cl)cc3)[n+]2[O-])n(C)c1=O?
A: survivor count (dose: 200.0 mg/kg/injection, schedule: Q01DX001 (ip), vehicle: Klucel (hydroxypropylcellulose) (HPC)): 2 of 6; survivor count (dose: 400.0 mg/kg/injection, schedule: Q01DX001 (ip), vehicle: Klucel (hydroxypropylcellulose) (HPC)): 0 of 6

Q: CN1Cc2c(N)cccc2C(c2ccccc2)C1 (stereo not given) was tested. Which survivor count [8] did it give?
A: 0 of 6

Q: Which T/C (dose: 0.09 mg/kg/injection, schedule: Q01DX009 (ip), vehicle: saline) does the source give for CCOC(=N)c1cn(C2OC(CO)C(O)C2O)c2ncnc(N)c12 (stereo not given) here?
A: 148 % of control

Q: And the T/C (dose: 0.13 mg/kg/injection, schedule: Q01DX009 (ip), vehicle: saline)?
A: 145 % of control

Q: What about the T/C (dose: 1.2 mg/kg/injection, schedule: Q04DX003 (ip), vehicle: saline) of the same molecule?
A: 140 % of control [5 of 6 alive]

Q: And the T/C (dose: 1.8 mg/kg/injection, schedule: Q04DX003 (ip), vehicle: saline)?
A: 140 % of control

Q: What about the T/C (dose: 2.6 mg/kg/injection, schedule: Q04DX003 (ip), vehicle: saline) of the same molecule?
A: 140 % of control

Q: What about the survivor count (dose: 4.0 mg/kg/injection, schedule: Q01DX009 (ip), vehicle: saline) of the same molecule?
A: 6 of 6

Q: And the survivor count (dose: 4.0 mg/kg/injection, schedule: Q04DX003 (ip), vehicle: saline)?
A: 6 of 6

Q: For COc1cc2ccnc(C3(OC(=O)c4ccccc4)CCN(CCc4ccccc4)CC3)c2cc1OC, which survivor count [6] is on record?
A: 6 of 6

Q: What about the survivor count [3] of the same molecule?
A: 6 of 6

Q: What about the survivor count [4] of the same molecule?
A: 6 of 6

Q: For N#Cc1ncc(C(Cl)Cl)nc1Cl, which survivor count [1] is on record?
A: 4 of 6

Q: And the survivor count [2]?
A: 1 of 6
